Our source for the binding values is paper PMC9243202.

Sequences of proteins named here, by UniProt entry; tags and fusion partners are left off.
UniProt Q9H081: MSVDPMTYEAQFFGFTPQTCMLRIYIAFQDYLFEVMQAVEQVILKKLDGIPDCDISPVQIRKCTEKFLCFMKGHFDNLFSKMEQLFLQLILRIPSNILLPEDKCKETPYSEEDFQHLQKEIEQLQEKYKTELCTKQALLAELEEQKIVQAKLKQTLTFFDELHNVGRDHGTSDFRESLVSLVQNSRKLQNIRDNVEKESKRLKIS
UniProt Q96IY1: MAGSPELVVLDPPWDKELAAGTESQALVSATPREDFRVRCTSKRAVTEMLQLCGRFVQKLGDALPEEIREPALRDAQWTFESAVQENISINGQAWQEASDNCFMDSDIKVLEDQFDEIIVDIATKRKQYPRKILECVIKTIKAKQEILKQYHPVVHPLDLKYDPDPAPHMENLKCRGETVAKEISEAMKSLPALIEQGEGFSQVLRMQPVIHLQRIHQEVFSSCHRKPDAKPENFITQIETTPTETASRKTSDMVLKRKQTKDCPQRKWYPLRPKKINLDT

Experiment [1] addresses FLAG-tagged FTO (fat mass of obesity-associated protein) (UniProt Q9C0B1). The experiment in a line: affinity purification with mass spectrometry; FLAG-tagged FTO ectopically expressed in HEK293T cells; co-IP with an anti-FLAG antibody, followed by LC-MS/MS.
Experiment [2] shares this target. The experiment is described as above. This is another data set of the same source.

Read-outs that look alike come from different tables or passages of the source. These are yes or no findings as the source states them, for the method shown. Binding seen in cells or lysates may run through a third protein. A yes stands for co-enrichment or nearness to the bait. Other partners may have been found.

With MIS12 (from UniProt Q9H081 1-205), the binding result in experiment [1] is “binds”.

As for NSL1 (from UniProt Q96IY1 1-281), the binding entry in experiment [1] is “binds”.

B1: RB1 (protein, UniProt P06400 1-928)
chain: MPPKTPRKTAATAAAAAAEPPAPPPPPPPEEDPEQDSGPEDLPLVRLEFEETEEPDFTALCQKLKIPDHVRERAWLTWEKVSSVDGVLGGYIQKKKELWGICIFIAAVDLDEMSFTFTELQKNIEISVHKFFNLLKEIDTSTKVDNAMSRLLKKYDVLFALFSKLERTCELIYLTQPSSSISTEINSALVLKVSWITFLLAKGEVLQMEDDLVISFQLMLCVLDYFIKLSPPMLLKEPYKTAVIPINGSPRTPRRGQNRSARIAKQLENDTRIIEVLCKEHECNIDEVKNVYFKNFIPFMNSLGLVTSNGLPEVENLSKRYEEIYLKNKDLDARLFLDHDKTLQTDSIDSFETQRTPRKSNLDEEVNVIPPHTPVRTVMNTIQQLMMILNSASDQPSENLISYFNNCTVNPKESILKRVKDIGYIFKEKFAKAVGQGCVEIGSQRYKLGVRLYYRVMESMLKSEEERLSIQNFSKLLNDNIFHMSLLACALEVVMATYSRSTSQNLDSGTDLSFPWILNVLNLKAFDFYKVIESFIKAEGNLTREMIKHLERCEHRIMESLAWLSDSPLFDLIKQSKDREGPTDHLESACPLNLPLQNNHTAADMYLSPVRSPKKKGSTTRVNSTANAETQATSAFQTQKPLKSTSLSLFYKKVYRLAYLRLNTLCERLLSEHPELEHIIWTLFQHTLQNEYELMRDRHLDQIMMCSMYGICKVKNIDLKFKIIVTAYKDLPHAVQETFKRVLIKEEEYDSIIVFYNSVFMQRLKTNILQYASTRPPTLSPIPHIPRSPYKFPSSPLRIPGGNIYISPLKSPYKISEGLPTPTKMTPRSRILVSIGESFGTSEKFQKINQMVCNSDRVLKRSAEGSNPPKPLKKLRFDIEGSDEADGSKHLPGESKFQQKLAEMTSTRTRMQKQKMNDSMDTSNKEEK
B1: in experiment [2], the binding entry was “binds”.
